# Laboratory results as given in article PMC9592618.
# Chains of the proteins cited; added tags and fusions are not shown.
# UniProt P46013: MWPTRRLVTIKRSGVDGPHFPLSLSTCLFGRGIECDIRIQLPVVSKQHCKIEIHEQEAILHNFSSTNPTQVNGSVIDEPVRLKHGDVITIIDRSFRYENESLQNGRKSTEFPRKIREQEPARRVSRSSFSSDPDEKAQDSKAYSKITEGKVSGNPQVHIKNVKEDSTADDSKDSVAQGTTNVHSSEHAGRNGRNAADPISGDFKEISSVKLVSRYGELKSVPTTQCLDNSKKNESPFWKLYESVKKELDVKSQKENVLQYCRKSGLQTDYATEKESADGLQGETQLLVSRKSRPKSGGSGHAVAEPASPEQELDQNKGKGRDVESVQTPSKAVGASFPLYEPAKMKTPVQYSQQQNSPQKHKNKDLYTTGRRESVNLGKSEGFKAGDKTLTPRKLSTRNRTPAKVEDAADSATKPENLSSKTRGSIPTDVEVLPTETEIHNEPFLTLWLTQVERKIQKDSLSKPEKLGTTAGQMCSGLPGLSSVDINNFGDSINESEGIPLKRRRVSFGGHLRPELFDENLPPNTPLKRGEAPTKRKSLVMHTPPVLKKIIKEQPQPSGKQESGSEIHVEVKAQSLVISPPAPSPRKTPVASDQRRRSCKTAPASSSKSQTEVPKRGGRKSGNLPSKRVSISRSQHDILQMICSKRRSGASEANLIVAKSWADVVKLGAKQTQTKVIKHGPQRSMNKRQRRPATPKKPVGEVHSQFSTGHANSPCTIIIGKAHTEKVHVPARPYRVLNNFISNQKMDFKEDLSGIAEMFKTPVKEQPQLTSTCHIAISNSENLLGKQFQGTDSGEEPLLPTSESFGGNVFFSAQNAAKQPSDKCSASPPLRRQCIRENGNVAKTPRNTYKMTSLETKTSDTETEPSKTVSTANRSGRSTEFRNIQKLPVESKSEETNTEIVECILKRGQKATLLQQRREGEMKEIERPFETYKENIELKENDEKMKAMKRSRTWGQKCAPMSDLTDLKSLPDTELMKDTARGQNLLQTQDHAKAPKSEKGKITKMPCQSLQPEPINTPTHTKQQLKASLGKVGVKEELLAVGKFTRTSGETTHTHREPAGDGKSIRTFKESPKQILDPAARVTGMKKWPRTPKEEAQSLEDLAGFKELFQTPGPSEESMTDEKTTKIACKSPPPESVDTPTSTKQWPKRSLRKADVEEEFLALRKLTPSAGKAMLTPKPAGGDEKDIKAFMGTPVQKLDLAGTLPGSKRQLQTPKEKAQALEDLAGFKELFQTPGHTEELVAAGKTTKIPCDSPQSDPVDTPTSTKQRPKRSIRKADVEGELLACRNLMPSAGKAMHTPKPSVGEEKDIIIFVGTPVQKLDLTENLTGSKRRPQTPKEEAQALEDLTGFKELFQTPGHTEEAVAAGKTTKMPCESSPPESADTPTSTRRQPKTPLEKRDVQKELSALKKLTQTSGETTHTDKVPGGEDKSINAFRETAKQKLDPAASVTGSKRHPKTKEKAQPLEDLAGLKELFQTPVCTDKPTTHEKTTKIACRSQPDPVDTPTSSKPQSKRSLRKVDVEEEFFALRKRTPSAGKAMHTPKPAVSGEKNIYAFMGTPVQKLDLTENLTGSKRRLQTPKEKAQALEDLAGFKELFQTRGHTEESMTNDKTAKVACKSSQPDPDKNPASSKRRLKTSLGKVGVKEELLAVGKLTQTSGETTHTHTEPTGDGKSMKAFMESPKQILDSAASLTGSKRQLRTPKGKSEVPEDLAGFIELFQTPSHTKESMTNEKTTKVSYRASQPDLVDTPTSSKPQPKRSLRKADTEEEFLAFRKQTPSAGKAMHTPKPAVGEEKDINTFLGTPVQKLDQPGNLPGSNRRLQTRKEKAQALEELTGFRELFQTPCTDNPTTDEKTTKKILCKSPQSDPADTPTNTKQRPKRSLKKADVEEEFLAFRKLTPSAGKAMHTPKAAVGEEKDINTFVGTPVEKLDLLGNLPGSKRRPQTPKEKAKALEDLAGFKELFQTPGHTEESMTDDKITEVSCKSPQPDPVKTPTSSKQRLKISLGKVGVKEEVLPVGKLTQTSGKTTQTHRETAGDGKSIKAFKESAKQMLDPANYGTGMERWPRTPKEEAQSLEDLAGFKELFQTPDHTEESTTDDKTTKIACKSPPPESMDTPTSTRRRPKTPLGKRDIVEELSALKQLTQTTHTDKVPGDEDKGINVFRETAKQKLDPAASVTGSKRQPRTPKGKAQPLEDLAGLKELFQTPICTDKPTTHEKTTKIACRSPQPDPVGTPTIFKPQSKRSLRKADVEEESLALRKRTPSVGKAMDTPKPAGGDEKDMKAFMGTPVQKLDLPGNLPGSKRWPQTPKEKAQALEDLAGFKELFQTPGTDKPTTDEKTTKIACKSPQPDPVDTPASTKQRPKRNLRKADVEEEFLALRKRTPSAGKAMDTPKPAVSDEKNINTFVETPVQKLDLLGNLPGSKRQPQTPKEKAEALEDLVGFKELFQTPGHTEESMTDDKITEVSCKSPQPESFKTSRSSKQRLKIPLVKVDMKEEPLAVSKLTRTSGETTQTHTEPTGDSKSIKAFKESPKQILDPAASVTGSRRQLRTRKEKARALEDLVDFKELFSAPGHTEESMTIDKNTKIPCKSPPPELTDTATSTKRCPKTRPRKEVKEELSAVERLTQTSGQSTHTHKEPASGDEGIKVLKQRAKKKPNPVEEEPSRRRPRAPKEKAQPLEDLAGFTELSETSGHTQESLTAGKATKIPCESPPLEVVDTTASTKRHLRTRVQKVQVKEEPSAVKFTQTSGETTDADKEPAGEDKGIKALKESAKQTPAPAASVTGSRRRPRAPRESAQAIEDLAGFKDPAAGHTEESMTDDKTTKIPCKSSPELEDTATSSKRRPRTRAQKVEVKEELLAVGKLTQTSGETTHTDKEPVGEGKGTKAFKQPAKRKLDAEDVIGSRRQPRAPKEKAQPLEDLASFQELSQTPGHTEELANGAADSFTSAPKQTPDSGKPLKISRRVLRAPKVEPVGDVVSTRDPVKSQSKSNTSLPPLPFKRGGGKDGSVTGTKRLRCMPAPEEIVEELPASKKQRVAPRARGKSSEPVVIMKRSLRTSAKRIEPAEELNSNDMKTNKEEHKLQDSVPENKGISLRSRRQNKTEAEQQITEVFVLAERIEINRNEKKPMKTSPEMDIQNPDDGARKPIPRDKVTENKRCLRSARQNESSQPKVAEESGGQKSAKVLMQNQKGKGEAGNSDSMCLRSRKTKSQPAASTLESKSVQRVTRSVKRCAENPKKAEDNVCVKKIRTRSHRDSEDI
# UniProt Q9ULW0: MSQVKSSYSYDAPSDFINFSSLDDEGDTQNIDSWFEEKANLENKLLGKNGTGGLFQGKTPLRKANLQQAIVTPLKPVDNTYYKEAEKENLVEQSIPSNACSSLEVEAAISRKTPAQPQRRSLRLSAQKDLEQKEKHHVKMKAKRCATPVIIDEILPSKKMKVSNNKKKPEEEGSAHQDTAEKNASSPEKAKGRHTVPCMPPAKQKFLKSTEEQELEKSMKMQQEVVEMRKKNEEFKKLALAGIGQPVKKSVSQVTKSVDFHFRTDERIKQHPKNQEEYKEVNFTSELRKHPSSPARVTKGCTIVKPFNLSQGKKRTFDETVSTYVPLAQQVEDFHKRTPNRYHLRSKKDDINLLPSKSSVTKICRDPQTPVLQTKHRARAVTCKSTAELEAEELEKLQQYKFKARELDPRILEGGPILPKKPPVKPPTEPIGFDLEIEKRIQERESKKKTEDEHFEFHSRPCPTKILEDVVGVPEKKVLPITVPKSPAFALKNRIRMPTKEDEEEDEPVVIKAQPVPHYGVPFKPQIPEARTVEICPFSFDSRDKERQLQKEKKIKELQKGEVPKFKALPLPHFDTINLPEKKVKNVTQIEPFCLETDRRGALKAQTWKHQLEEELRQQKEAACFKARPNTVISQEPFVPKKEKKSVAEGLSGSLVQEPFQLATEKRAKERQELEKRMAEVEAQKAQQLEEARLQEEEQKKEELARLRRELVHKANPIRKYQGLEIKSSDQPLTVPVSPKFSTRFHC
# UniProt P62491: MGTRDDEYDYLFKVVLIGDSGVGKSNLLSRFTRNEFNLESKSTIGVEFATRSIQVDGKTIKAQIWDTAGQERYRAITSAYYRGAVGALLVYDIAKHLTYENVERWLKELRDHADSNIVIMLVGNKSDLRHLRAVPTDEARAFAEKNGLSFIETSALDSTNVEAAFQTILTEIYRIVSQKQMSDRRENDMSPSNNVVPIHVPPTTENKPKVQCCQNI
# UniProt O00443: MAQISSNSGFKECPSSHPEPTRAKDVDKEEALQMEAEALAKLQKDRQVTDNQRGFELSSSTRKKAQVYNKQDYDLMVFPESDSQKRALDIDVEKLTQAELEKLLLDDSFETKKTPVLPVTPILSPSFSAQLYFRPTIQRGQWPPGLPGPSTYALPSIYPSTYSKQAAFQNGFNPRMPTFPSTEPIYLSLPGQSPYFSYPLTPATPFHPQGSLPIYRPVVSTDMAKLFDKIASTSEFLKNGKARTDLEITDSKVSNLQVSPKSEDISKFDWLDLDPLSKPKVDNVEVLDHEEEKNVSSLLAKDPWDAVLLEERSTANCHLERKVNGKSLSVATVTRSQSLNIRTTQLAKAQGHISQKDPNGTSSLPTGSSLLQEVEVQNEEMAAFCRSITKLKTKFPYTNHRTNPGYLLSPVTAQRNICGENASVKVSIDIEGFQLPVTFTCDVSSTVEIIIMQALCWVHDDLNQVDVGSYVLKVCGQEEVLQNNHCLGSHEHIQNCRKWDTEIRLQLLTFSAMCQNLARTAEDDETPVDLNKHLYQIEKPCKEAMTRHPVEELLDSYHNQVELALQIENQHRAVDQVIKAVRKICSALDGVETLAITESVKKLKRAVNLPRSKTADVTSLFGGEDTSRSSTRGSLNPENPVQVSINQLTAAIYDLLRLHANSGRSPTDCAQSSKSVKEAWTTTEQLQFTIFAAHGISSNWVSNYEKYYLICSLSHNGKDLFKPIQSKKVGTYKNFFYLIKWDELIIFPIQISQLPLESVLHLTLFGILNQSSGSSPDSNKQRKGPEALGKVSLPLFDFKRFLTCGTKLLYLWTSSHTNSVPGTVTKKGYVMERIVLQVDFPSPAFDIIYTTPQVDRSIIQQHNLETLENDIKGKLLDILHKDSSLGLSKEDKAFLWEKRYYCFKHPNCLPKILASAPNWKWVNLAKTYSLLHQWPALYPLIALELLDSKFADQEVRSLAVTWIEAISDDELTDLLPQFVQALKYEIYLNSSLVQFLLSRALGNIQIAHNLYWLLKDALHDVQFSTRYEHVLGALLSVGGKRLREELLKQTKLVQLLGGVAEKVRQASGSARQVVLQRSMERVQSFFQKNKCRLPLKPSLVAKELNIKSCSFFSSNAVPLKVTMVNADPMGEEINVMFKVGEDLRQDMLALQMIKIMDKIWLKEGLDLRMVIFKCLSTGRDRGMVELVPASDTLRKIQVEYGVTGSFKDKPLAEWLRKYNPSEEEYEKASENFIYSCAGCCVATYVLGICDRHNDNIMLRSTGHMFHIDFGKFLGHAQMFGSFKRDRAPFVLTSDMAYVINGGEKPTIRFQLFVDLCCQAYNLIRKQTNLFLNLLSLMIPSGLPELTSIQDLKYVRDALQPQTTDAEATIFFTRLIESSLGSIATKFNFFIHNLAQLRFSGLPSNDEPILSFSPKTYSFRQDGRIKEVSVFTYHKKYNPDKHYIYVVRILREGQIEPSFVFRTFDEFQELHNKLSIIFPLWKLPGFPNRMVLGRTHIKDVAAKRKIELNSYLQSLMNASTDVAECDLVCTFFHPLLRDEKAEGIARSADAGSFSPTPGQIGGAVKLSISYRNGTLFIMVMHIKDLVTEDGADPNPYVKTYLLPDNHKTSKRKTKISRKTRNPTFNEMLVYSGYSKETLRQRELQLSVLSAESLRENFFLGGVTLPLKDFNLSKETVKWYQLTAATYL
# Molecular target: T1, kinesin family 15 (KIF15) (human (endogenous in PANC-1 / MIA PaCa-2)) (UniProt Q9NS87)
# T1 sequence: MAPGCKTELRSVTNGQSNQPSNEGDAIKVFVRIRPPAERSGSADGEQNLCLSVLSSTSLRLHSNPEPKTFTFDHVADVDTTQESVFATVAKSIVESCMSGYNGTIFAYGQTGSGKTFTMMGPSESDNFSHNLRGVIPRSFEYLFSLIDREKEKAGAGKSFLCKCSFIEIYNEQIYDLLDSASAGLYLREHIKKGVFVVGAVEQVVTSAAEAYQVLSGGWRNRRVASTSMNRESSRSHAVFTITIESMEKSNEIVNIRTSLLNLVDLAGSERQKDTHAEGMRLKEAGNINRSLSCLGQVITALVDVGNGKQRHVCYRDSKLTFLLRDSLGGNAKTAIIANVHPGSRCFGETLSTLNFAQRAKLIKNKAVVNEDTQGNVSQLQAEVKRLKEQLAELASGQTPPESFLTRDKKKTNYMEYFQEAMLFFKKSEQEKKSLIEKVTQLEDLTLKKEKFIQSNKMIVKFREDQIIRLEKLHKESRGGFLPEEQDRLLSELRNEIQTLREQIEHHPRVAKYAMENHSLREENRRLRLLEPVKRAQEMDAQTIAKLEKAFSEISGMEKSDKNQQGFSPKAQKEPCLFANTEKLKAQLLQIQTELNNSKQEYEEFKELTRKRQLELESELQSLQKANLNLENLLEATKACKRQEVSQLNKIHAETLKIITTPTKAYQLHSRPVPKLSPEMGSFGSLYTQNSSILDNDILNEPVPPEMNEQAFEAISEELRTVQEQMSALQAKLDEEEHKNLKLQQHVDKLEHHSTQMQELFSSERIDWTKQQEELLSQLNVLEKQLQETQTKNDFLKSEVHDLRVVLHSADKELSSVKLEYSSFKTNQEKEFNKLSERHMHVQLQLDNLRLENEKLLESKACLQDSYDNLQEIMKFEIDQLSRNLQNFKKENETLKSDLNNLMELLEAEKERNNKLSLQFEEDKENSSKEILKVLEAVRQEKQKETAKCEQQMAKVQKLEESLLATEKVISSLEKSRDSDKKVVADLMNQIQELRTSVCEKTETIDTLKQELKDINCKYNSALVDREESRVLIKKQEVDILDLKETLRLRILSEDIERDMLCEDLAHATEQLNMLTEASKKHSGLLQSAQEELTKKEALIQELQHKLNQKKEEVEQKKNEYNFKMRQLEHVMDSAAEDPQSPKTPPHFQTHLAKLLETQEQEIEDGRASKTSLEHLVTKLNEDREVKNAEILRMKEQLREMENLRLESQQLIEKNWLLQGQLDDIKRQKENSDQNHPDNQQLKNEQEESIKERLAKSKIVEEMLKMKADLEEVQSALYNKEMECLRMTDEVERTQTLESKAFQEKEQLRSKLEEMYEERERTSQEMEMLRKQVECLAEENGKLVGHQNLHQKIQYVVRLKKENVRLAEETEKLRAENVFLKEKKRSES
# Experiment: affinity purification with mass spectrometry; KIF15 immunoprecipitated from PC cell lysates (primary antibody or IgG overnight at 4 °C, agarose beads 4 h, five washes); gel stained, band of interest analysed by mass spectrometry
row,binding,Substance
1,binds,KI-67 (from UniProt P46013 1-3256)
2,binds,TPX2 (from UniProt Q9ULW0 1-747)
3,binds,RAB11A (from UniProt P62491 1-216)
4,binds,PI3K-C2α (from UniProt O00443 1-1686)

# No constants are given. Whether binding was seen depends on the method and setting. In cells and extracts the contact can be indirect. These calls come from enrichment with a bait or labelling near it, and not all partners need be listed.
